In paper PMC11488581:
Results are given in words; binding and its absence hold for the method and conditions named. In cells and extracts the contact can be indirect. Some entries that bind do so weakly or less than the wild type.

Sequences of proteins named here, by UniProt entry; tags and fusion partners are left off. A change or cut given only in a name is not applied to a line headed by its entry. A line that says so, or that is headed by a name, gives the form on record, which may keep a tag or linker. Residues count along the entry.
UniProt Q09472: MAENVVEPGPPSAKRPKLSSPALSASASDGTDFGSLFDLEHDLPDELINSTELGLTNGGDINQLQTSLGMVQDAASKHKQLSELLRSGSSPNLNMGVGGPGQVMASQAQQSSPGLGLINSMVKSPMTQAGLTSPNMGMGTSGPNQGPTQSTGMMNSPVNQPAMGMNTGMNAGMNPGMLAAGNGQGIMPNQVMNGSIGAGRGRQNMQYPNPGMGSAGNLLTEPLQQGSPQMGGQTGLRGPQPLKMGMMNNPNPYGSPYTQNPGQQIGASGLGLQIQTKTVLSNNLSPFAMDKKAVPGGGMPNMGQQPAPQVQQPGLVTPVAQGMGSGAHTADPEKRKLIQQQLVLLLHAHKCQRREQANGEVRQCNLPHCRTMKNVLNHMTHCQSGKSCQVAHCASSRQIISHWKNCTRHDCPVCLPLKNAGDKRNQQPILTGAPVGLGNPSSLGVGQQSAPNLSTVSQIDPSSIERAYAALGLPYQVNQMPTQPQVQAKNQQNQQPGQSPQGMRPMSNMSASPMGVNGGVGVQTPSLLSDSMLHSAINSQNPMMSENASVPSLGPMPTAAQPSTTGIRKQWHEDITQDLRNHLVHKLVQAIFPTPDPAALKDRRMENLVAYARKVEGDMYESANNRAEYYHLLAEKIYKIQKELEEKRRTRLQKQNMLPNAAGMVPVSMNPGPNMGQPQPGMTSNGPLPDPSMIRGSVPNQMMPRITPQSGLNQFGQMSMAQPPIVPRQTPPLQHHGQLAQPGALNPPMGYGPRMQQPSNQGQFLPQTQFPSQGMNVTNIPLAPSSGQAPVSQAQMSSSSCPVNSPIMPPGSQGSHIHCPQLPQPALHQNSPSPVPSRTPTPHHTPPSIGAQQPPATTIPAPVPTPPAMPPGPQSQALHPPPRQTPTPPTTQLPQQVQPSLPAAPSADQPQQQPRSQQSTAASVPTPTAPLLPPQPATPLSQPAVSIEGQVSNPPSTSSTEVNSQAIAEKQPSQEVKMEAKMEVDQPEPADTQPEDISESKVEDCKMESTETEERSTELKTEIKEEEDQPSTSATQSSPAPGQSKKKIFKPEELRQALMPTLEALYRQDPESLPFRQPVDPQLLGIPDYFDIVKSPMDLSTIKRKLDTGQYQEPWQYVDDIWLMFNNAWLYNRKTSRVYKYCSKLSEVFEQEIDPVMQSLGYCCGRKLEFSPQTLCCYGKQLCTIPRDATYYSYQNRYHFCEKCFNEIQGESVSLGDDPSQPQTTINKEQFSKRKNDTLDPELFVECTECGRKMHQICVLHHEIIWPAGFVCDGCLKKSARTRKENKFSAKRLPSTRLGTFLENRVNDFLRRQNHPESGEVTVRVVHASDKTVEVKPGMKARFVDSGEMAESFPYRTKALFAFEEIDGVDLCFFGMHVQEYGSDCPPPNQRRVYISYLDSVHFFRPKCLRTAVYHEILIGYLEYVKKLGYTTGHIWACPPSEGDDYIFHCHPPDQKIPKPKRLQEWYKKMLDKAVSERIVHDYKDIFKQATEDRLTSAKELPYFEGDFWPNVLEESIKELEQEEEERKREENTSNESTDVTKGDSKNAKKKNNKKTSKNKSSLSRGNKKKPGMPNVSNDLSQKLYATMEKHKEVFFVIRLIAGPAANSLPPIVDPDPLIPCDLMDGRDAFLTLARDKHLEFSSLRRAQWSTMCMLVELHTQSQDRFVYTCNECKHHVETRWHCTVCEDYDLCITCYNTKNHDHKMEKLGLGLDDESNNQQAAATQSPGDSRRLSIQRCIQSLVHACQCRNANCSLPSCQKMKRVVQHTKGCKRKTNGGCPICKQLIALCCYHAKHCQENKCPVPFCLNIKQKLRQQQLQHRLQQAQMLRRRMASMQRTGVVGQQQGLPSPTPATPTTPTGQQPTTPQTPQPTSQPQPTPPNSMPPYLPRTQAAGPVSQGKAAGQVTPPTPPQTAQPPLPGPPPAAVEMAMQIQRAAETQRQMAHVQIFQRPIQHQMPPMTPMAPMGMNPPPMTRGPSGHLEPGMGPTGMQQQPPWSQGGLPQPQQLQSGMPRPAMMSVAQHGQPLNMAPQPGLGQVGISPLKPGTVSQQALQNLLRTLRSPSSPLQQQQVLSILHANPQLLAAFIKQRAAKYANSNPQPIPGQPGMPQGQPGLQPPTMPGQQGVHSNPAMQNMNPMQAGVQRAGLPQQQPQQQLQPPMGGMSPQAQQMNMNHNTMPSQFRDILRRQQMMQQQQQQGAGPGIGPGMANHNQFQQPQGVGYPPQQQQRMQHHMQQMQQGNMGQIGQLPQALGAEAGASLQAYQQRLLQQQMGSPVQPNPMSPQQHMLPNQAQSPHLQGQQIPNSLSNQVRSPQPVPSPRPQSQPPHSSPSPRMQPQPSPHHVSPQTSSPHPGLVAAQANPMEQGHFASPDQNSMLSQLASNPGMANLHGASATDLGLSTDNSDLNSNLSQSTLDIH
flag-tagged P300 truncate: domain containing HAT activity (amino acids 1069-1942): residues 1069-1942 of Q09472

Tests used:
[1] = target: flag-tagged P300 truncate: domain containing HAT activity (amino acids 1069-1942) (UniProt Q09472); test: co-IP; flag-tagged P300 truncates transfected into U87MG cells; lysate immunoprecipitated with anti-flag or REST antibody and protein A/G agarose; IP buffer 50 mM Tris-HCl pH 8.0, 150 mM NaCl, 0.05 mM EDTA, 1% NP40, 10% glycerol
[2] = target: E1A binding protein P300 (human (endogenous in U87MG, T98G)) (UniProt Q09472); test: co-IP; P300 and REST in lysates of different GBM cells; IP buffer 50 mM Tris-HCl pH 8.0, 150 mM NaCl, 0.05 mM EDTA, 1% NP40, 10% glycerol; also U87MG and T98G cells treated with DMSO or C646 for 24 h (C646 reduced the interaction)

B1: Repressor element-1 silencing transcription factor (REST) (protein, UniProt Q13127 1-1097)
chain: MATQVMGQSSGGGGLFTSSGNIGMALPNDMYDLHDLSKAELAAPQLIMLANVALTGEVNGSCCDYLVGEERQMAELMPVGDNNFSDSEEGEGLEESADIKGEPHGLENMELRSLELSVVEPQPVFEASGAPDIYSSNKDLPPETPGAEDKGKSSKTKPFRCKPCQYEAESEEQFVHHIRVHSAKKFFVEESAEKQAKARESGSSTAEEGDFSKGPIRCDRCGYNTNRYDHYTAHLKHHTRAGDNERVYKCIICTYTTVSEYHWRKHLRNHFPRKVYTCGKCNYFSDRKNNYVQHVRTHTGERPYKCELCPYSSSQKTHLTRHMRTHSGEKPFKCDQCSYVASNQHEVTRHARQVHNGPKPLNCPHCDYKTADRSNFKKHVELHVNPRQFNCPVCDYAASKKCNLQYHFKSKHPTCPNKTMDVSKVKLKKTKKREADLPDNITNEKTEIEQTKIKGDVAGKKNEKSVKAEKRDVSKEKKPSNNVSVIQVTTRTRKSVTEVKEMDVHTGSNSEKFSKTKKSKRKLEVDSHSLHGPVNDEESSTKKKKKVESKSKNNSQEVPKGDSKVEENKKQNTCMKKSTKKKTLKNKSSKKSSKPPQKEPVEKGSAQMDPPQMGPAPTEAVQKGPVQVEPPPPMEHAQMEGAQIRPAPDEPVQMEVVQEGPAQKELLPPVEPAQMVGAQIVLAHMELPPPMETAQTEVAQMGPAPMEPAQMEVAQVESAPMQVVQKEPVQMELSPPMEVVQKEPVQIELSPPMEVVQKEPVKIELSPPIEVVQKEPVQMELSPPMGVVQKEPAQREPPPPREPPLHMEPISKKPPLRKDKKEKSNMQSERARKEQVLIEVGLVPVKDSWLLKESVSTEDLSPPSPPLPKENLREEASGDQKLLNTGEGNKEAPLQKVGAEEADESLPGLAANINESTHISSSGQNLNTPEGETLNGKHQTDSIVCEMKMDTDQNTRENLTGINSTVEEPVSPMLPPSAVEEREAVSKTALASPPATMAANESQEIDEDEGIHSHEGSDLSDNMSEGSDDSGLHGARPVPQESSRKNAKEALAVKAAKGDFVCIFCDRSFRKGKDYSKHLNRHLVNVYYLEEAAQGQE
- binding [1]: binds
- binding [2]: binds
